The data set is described as follows: general procedure: solution-phase peptide synthesis; HATU, diisopropylethyl amine.

As for “(7S, 10S)-10-((E)-4-chlorobut-1-en-1-yl)-7-isopropyl-4,4-dimethyl-9-oxa-16-thia-3,6,13,18-tetraazabicyclo[13.2.1]octadeca-1(17),15(18)-diene-2,5,8,12-tetraone”, the cyclisation yield (cyclisation step, overall from Example 5 Boc/tBu protected precursor) is recorded as 75% overall.
“(R)-2′-((5S,8S)-5-((E)-4-chlorobut-1-en-1-yl)-8-isopropyl-12,12-dimethyl-3,7,10-trioxo-6,11-dioxa-2,9-diazatridecyl)-4-methyl-4,5-dihydro-[2,4′-bithiazole]-4-carboxylic acid” gave a step yield (coupling step) of 88%.
Turning to “(S)-S-((E)-4-((7S,10S)-7-isopropyl-4,4-dimethyl-2,5,8,12-tetraoxo-9-oxa-16-thia-3,6,13,18-tetraazabicyclo[13.2.1]octadeca-1(17),15(18)-dien-10-yl)but-3-en-1-yl) 2-((tert-butoxycarbonyl)amino)-3-methylbutanethioate”, under “late stage modification step”, the step yield worked out at 80%.
In turn, “(S)-S-((E)-4-((7S,10S)-7-isopropyl-4,4-dimethyl-2,5,8,12-tetraoxo-9-oxa-16-thia-3,6,13,18-tetraazabicyclo[13.2.1]octadeca-1(17),15(18)-dien-10-yl)but-3-en-1-yl) 2-amino-3-methylbutanethioate hydrochloride” displayed a step yield (late stage modification step, hydrochloride) of 95%.
On to “(S)-S-((E)-4-((7S, 10S)-7-isopropyl-4,4-dimethyl-2,5,8,12-tetraoxo-9-oxa-16-thia-3,6,13,18-tetraazabicyclo[13.2.1 ]octadeca-1(17),15(18)-dien-10-yl)but-3-en-1-yl) 2-amino-3-methylbutanethioate benzenesulfonate”, for which the step yield (late stage modification step, benzenesulfonate) is recorded as 50%.
Consider “S-((E)-4-((7S,10S)-7-isopropyl-4,4-dimethyl-2,5,8,12-tetraoxo-9-oxa-16-thia-3,6,13,18-tetraazabicyclo[13.2.1]octadeca-1(17),15(18)-dien-10-yl)but-3-en-1-yl) octanethioate”, for which the step yield (lipidation step) is given as 90%.
In turn, “S-((E)-4-((SR,8S,11S)-8-isopropyl-5-methyl-6,9,13-trioxo-10-oxa-3,17-dithia-7,14,19,20-tetraazatricyclo[14,2,1,12,5]icosa-1(18),2(20),16(19)-trien-11-yl)but-3-en-1-yl) octanethioate” displayed a step yield (lipidation step) of 42%.
The substance “tert-butyl 2-((5S,8S)-5-((E)-4-chlorobut-1-en-1-yl)-8-isopropyl-11,11,15,15-tetramethyl-3,7,10,13-tetraoxo-6,14-dioxa-2,9,12-triazahexadecyl)thiazole-4-carboxylate acid trifluoroacetate” displayed a step yield (coupling step, trifluoroacetate) of 90%.

These data come from patent US12252511 (dated 2025).
